PMC5004903
Results are given in words; binding and its absence hold for the method and conditions named. Binding seen in cells or lysates may run through a third protein.

Chains of the proteins cited; added tags and fusions are not shown. Lines headed by an entry give the natural chain unless they say otherwise; changes in a name come on top.
UniProt Q9Z248: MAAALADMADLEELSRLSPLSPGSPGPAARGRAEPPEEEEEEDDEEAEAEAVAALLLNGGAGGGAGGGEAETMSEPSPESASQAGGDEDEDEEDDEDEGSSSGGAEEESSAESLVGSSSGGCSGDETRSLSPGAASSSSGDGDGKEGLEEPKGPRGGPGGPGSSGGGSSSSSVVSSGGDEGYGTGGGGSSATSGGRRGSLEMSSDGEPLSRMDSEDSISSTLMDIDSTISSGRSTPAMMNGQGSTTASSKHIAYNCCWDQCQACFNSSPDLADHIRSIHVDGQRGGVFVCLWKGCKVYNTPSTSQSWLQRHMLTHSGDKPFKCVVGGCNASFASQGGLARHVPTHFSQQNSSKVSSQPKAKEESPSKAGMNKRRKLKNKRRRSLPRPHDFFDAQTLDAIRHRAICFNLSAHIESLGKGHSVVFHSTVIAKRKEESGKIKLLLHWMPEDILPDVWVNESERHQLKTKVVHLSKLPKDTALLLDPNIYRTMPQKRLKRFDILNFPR
UniProt Q02395: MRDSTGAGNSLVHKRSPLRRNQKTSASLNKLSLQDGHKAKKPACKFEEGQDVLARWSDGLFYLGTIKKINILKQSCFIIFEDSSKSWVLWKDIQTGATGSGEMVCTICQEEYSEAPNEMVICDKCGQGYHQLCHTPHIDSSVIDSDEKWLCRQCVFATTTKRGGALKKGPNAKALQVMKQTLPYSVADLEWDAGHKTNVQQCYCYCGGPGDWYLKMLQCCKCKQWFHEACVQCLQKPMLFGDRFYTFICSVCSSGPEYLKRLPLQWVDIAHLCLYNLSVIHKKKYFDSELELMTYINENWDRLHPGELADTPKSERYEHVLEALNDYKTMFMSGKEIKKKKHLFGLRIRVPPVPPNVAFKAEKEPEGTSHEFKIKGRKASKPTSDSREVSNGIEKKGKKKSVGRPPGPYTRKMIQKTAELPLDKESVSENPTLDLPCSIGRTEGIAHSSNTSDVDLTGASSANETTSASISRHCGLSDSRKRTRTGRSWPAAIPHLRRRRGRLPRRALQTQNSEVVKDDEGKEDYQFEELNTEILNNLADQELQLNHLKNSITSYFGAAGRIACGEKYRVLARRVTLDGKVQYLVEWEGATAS

Target: Flag-2xStrepII-tagged (FS2) AEBP2 (mouse) (UniProt Q9Z248)
Test: co-IP; mESC lines stably expressing FS2-AEBP2 or FS2-C17ORF96 homologue; immunoprecipitation with the Flag-2xStrepII (FS2) antibody or the JARID2 antibody, immunoblot

binding: no binding
Substance: PCL2 (MTF2), endogenous (from UniProt Q02395 1-593)
